Assay results as given in PubChem BioAssay AID488837 (National Center for Advancing Translational Sciences (NCATS), 2010).
Out of some 330,000 compounds screened, about 20 (0.006%) were called active. The shares of active, inactive and inconclusive entries below differ from those in the screen. Calls come from the whole dose curve; as a rule, active = well fitted inhibition curve with a large enough effect; inconclusive = small, poorly fitted or top-dose-only effect, or effect the other way; inactive = flat fitted curve, though single readings scatter. Potencies beside an inconclusive call are fits to weak or partial responses and may not hold up.

Chains of the proteins cited; added tags and fusions are not shown. Lines headed by an entry give the natural chain unless they say otherwise; changes in a name come on top.
UniProt O00167: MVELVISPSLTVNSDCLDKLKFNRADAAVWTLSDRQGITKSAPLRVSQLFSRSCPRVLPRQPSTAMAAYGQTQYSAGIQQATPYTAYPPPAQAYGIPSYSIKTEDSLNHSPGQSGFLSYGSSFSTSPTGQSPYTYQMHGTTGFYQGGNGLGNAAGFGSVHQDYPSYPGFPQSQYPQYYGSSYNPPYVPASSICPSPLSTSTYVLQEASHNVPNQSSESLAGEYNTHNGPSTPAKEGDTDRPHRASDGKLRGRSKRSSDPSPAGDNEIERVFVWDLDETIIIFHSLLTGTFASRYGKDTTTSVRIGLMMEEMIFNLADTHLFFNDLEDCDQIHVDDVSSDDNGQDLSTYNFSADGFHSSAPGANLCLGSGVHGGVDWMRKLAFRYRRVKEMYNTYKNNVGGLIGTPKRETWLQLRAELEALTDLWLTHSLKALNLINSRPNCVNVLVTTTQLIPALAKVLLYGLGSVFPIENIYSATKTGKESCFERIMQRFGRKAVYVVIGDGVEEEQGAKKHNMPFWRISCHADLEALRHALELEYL

These molecules were tested against Protein phosphatase EYA2 (Homo sapiens) (UniProt O00167) (assay: qHTS Assay for Inhibitors of the Phosphatase Activity of Eya2). Details: recombinant Eya2, OMFP fluorescence dephosphorylation (OMFP is methylfluorescein phosphate); activity, negative = inhibition: at 76.9 µM (top of the series) unless noted.
Outline: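 Eya2 (0.2 uM) preincubated 10 min at ambient with compound, then OMFP substrate added at 50 uM; 10 min reaction in 50 mM HEPES pH 7.5, 50 mM NaCl, 5 uM MgCl2, 0.05% BSA, 1 mM DTT. Fluorescence read at Ex 485/Em 525 nm.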
% is set by controls: 0 for no effect and ±100 for the full control effect; potency is the fitted concentration of half-maximal effect.

Row | SMILES | activity, negative = inhibition | Potency
1 | COc1ccccc1Nc1nn2c(=O)c3ccc(C(=O)N4CCCCC4)cc3nc2s1 | inactive: 3.88% | 
2 | CN(Cc1ccccc1)S(=O)(=O)c1ccc(OCC(=O)NCc2ccccn2)cc1 | inactive: -8.64% | 
3 | CCn1cc(/C=C(\NC(=O)c2ccccc2F)C(=O)NCCCn2ccnc2)c2ccccc21 | inactive: 7.81% | 
4 | O=C(/C=C/c1ccc(OCCCF)cc1)NCc1ccc(Cl)c(Cl)c1 |  | inconclusive: 79.4 µM [inhibitor, single point]
5 | CCN(CC)c1ccc(C(=O)OCC(=O)N2CCCC2)cc1 |  | inconclusive: 224 µM [inhibitor, single point]
6 | C=C1CC[C@H](O)C/C1=C/C=C1\CCC[C@]2(C)[C@@H]([C@H](C)/C=C/[C@H](C)C(C)C)CC[C@@H]12 |  | inconclusive: 79.4 µM [inhibitor, single point]
7 | CCCN1C(=O)CSC1=Nc1ccccc1 |  | inconclusive: 100 µM [inhibitor, partial curve, poor fit]
8 | Cc1[nH][nH]c(=O)c1C(c1ccc(-c2ccc(Cl)c(Cl)c2)o1)c1c(C)[nH][nH]c1=O | inactive: -6.59% | 
9 | COc1cc2c(cc1OC)C(c1c(Cl)cccc1Cl)NC(=O)C2 (stereo unspecified) |  | inconclusive: 20 µM [inhibitor, partial curve]
10 | Cc1cc(NS(=O)(=O)c2ccc(NC(=O)C(C)Oc3cc(C)c(Cl)c(C)c3)cc2)no1 (stereo unspecified) |  | inconclusive: 50.1 µM [inhibitor, partial curve]
11 | Cc1ccc(/C=N/NC(=O)Cn2cnc3ccccc32)cc1 | inactive: -8.83% | 
12 | CC1CN(C(=O)CCC(=O)NCCCc2ccccc2)c2ccccc2O1 (stereo unspecified) |  | inconclusive: 126 µM [inhibitor, partial curve, poor fit]
13 | N#Cc1c(Sc2ncc(C(F)(F)F)cc2Cl)nsc1C/C=N\OCc1ccccc1Br | inactive: 0.0535% | 
14 | CN1C2CCC1CC(NS(=O)(=O)c1cc(Cl)c(Cl)cc1Cl)C2 (stereo unspecified) | inactive: 15.2% | 
15 | Cc1sc2nc(C)n(/N=C/N(C)C)c(=O)c2c1C | inactive: -13.9% | 
16 | Cc1ccc2c(c1)c1ccc3c(c1n2C)C(=O)C=CC3=O | inactive: 14.8% | 
17 | Cc1nc2ccc(C(=O)O)cc2c2c1CC(CN)O2 (stereo unspecified) |  | inconclusive: 15.8 µM [inhibitor, single point]
18 | COC(=O)CSc1nc(-c2cccs2)ccc1C#N | inactive: -12% | 
19 | CC(=O)Nc1ccc(-c2nc3ccc(NC(C)=O)cc3o2)cc1 | inactive: 4.36% | 
20 | Cc1ccc(/C=C/c2ccc(N(C)C)cc2)[n+](C)c1 |  | inconclusive: 63.1 µM [activator, partial curve]
21 | COc1cc2c(cc1CN1CCN(C(=O)c3cc(OC)c(OC)c(OC)c3)CC1)OCO2 |  | inconclusive: 20 µM [inhibitor, single point]
22 | O=C(Cc1cccs1)NCc1cccc(CNC(=O)Cc2cccs2)c1 |  | inconclusive: 158 µM [inhibitor, single point]
23 | CCC1/C(=N\O)CC(c2ccco2)NC1c1ccco1 (stereo unspecified) |  | inconclusive: 89.1 µM [inhibitor, partial curve, poor fit]
24 | Cc1cc(S(=O)(=O)NC(C)C)ccc1OCC(=O)Nc1ccc2c(c1)OCCO2 |  | inconclusive: 251 µM [inhibitor, partial curve, poor fit]

Records 11–12, reprinted for reference:
Row | SMILES | activity, negative = inhibition | Potency
11 | Cc1ccc(/C=N/NC(=O)Cn2cnc3ccccc32)cc1 | inactive: -8.83% | 
12 | CC1CN(C(=O)CCC(=O)NCCCc2ccccc2)c2ccccc2O1 (stereo unspecified) |  | inconclusive: 126 µM [inhibitor, partial curve, poor fit]

More compounds

Row | SMILES | activity, negative = inhibition | Potency
25 | CC(=O)N1CCCc2cc(S(=O)(=O)N3CCCC(C(=O)Nc4ccccc4C)C3)ccc21 (stereo unspecified) | inactive: -1.38% | 
26 | C=C(C)CCOC(=O)C(CC(=O)O)NCc1ccco1 (stereo unspecified) |  | inconclusive: 89.1 µM [inhibitor, single point]
27 | O=C1c2cccnc2C(=O)N1Cc1ccc(F)cc1S(=O)(=O)NCc1ccco1 |  | inconclusive: 100 µM [inhibitor, single point]
28 | COCCCNc1nc2c(c(=O)n(Cc3ccc(OC)cc3)c(=O)n2C)n1C | inactive: 10.1% | 
29 | Cc1ccc(NC(=S)N(C)C)cc1C |  | inconclusive: 200 µM [inhibitor, partial curve]
30 | Cc1ccc(-c2ccc(=O)n(Cc3cc(C)ccc3C)n2)cc1 |  | inconclusive: 100 µM [inhibitor, single point]
31 | CCC(C)[C@@H](N)C(=O)N/N=C/c1cccc2nccnc12 (stereo partly specified) | inactive: 5.71% | 
32 | Cc1ccc(Nc2nc(-c3c(C)nc4ncccn34)cs2)cc1 | inactive: -9.02% | 
33 | O=C1c2ccccc2NC(c2cc(Cl)cc(Cl)c2O)N1Cc1cccnc1 (stereo unspecified) |  | inconclusive: 20 µM [inhibitor, single point]
34 | COCC(=O)NNC(=S)Nc1cccc(C)c1C |  | inconclusive: 100 µM [inhibitor, single point]
35 | COCCOC(=O)C1=C(C)NC(=O)N(C(C)=O)C1c1ccc(Cl)cc1 (stereo unspecified) |  | inconclusive: 25.1 µM [inhibitor, single point]
36 | CC1=C(C(=O)N(C)C)C(c2ccc(C)s2)NC(=S)N1 (stereo unspecified) |  | inconclusive: 20 µM [inhibitor, single point]
37 | CCC(Sc1nc2n[nH]c(C)c2c(=N)n1-c1cccc(Cl)c1)C(=O)NCCOC (stereo unspecified) |  | inconclusive: 22.4 µM [inhibitor, single point]
38 | COc1cc(/C=C2\SC(c3ccc(C)cc3)=NC2=O)cc(OC)c1OC | inactive: -10.2% | 
39 | Nc1nnc(-c2cn(-c3ccccc3)nc2-c2ccc(Cl)cc2)o1 |  | inconclusive: 178 µM [inhibitor, single point]
40 | COc1ccc(-c2cc(C#N)nc(Cl)n2)cc1 |  | inconclusive: 141 µM [inhibitor, partial curve, poor fit]
41 | O=C(CC1CCCC1)OCn1nnc2ccccc2c1=O | inactive: 5.46% | 
42 | CCOC(=O)c1c(NC(=O)Cc2ccccc2)sc2c1CCN(C)C2 |  | inconclusive: 89.1 µM [inhibitor, single point]
43 | Cn1c(=O)c(C(=O)Nc2ccccc2S(N)(=O)=O)c(O)c2ccccc21 |  | inconclusive: 63.1 µM [inhibitor, partial curve, poor fit]
44 | COC(=O)C1=CN(C2CC2)C=C(C(=O)OC)C1c1ccccc1OC | inactive: 1.14% | 
45 | C/C(=N\O)C(C)Oc1ccc(Cl)cc1 (stereo unspecified) |  | inconclusive: 89.1 µM [inhibitor, single point]
46 | CN(C(=O)CCc1nnc(CCCCc2ccccc2)o1)C1CCOCC1 |  | inconclusive: 126 µM [inhibitor, single point]
47 | COc1ccccc1C(=O)NC(=O)CSc1nc(C)cs1 | inactive: -0.457% | 
48 | O=C(NCCCn1ccnc1)c1ccc(Cl)c(Cl)c1 |  | inconclusive: 89.1 µM [inhibitor, single point]

Given as tab-separated lines: two of the compounds above.
Row	SMILES	activity, negative = inhibition	Potency
32	Cc1ccc(Nc2nc(-c3c(C)nc4ncccn34)cs2)cc1	inactive: -9.02%	
39	Nc1nnc(-c2cn(-c3ccccc3)nc2-c2ccc(Cl)cc2)o1		inconclusive: 178 µM [inhibitor, single point]

(continued)

Row | SMILES | activity, negative = inhibition | Potency
49 | O=C(CN1CCN(c2ccccc2O)CC1)NNC(=O)c1ccc(Cl)cc1 | inactive: 3.63% | 
50 | Cc1[nH]c2ccccc2c1SCc1nnc(SCc2ccc(Cl)cc2)n1C |  | inconclusive: 112 µM [inhibitor, single point]
51 | COc1ccccc1C(=O)Nc1ccc2c(c1)nc(CN1CCCCC1)n2C |  | inconclusive: 112 µM [inhibitor, single point]
52 | Cc1ccc(C2NC(=O)NC3=C2CCc2ccccc23)cc1 (stereo unspecified) | inactive: 1.03% | 
53 | CN(Cc1ccccc1)C(=O)c1nc2ccccn2c1CN1CCC(N2CCOCC2)CC1 |  | inconclusive: 100 µM [inhibitor, single point]
54 | O=NNc1nc2ccccc2n1Cc1ccccc1 |  | inconclusive: 100 µM [inhibitor, single point]
55 | COc1ccccc1OCCCCCc1c(C)n[nH]c1C |  | inconclusive: 112 µM [inhibitor, single point]
56 | COc1ccc(C(=O)COc2ccc3ccc(=O)oc3c2)cc1 |  | inconclusive: 158 µM [inhibitor, partial curve, poor fit]
57 | CC(=O)Nc1cccc(Oc2nc(-c3ccccn3)nc3ccccc23)c1 |  | inconclusive: 20 µM [inhibitor, single point]
58 | CCOc1cc(C2/C(=C(/O)c3ccc(S(=O)(=O)N4CCCCC4)cc3)C(=O)C(=O)N2CCOC)ccc1O (stereo unspecified) |  | inconclusive: 112 µM [inhibitor, single point]
59 | CCN(CC)C(=O)Cn1cc(C(=O)C(=O)N2CCN(Cc3ccccc3)CC2)c2ccccc21 |  | inconclusive: 3550 µM [inhibitor, partial curve, poor fit]
60 | Cc1nnc2c(N3CCN(CCO)CC3)nc3ccccc3n12 |  | inconclusive: 89.1 µM [inhibitor, single point]
61 | Cc1ccccc1CN1CCC(Oc2ccc(C(=O)N3CCCC3)cc2)CC1 |  | inconclusive: 79.4 µM [inhibitor, partial curve]
62 | CCOC(=O)COc1ccc2c(=O)c(-c3ccc(OC)c(OC)c3)c(C(=O)OCC)oc2c1 |  | inconclusive: 112 µM [inhibitor, single point]
63 | O=S1(=O)CCC(NC2CCCC2)C1 (stereo unspecified) |  | inconclusive: 22.4 µM [inhibitor, single point]
64 | O=C(N/N=C/c1ccsc1)c1cc2ccccc2o1 |  | inconclusive: 112 µM [inhibitor, single point]
65 | COC(=O)C1Cc2c([nH]c3ccccc23)C2(CCN(Cc3ccccc3)CC2)N1 (stereo unspecified) |  | inconclusive: 100 µM [inhibitor, single point]
66 | CCN1CC=C2C(C#N)=C(N)C(C#N)(C#N)C(c3cc(Cl)ccc3Cl)C2C1 (stereo unspecified) | inactive: 13.8% | 
67 | CN(NC1OC(=O)c2ccccc21)c1ncc(Cl)cc1C(F)(F)F (stereo unspecified) |  | inconclusive: 50.1 µM [inhibitor, single point]
68 | Cc1[nH]c2ccccc2c1CCNC(=O)CCC(=O)c1ccccc1 |  | inconclusive: 100 µM [inhibitor, single point]
69 | CCCc1[nH]n(-c2ccc([N+](=O)[O-])cc2)c(=O)c1C=NCCc1ccc(OC)c(OC)c1 |  | inconclusive: 100 µM [inhibitor, single point]
70 | COc1ccc(CNc2nc(C)cc(C)c2C#N)cc1 |  | inconclusive: 89.1 µM [inhibitor, single point]
71 | N#C/C(=C\c1cccc(O)c1)C(=O)Nc1ccc2c(c1)OCCO2 |  | inconclusive: 79.4 µM [inhibitor, single point]
